Data as given in PubChem BioAssay AID1224830 (NIAID, 2016).
Assay: 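Genes whose knock-down alters the TNF-alpha reporter response to LPS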 (primary screen). Cells: human THP-1 monocytic leukaemia cells, TNF dual-luciferase reporter clone, PMA-differentiated to macrophage-like cells. Reagent: siRNA pool against human genes, 50 nM. Timing: LPS for 4 h, given about 3 days after siRNA transfection. Challenge: bacterial LPS (TLR4 ligand), 10 ng/ml. Detection: 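TNF firefly reporter luminescence divided by renilla, normalised to the plate median, then turned into a robust z-score for each replicate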. Reading the numbers: TNF reporter robust z-score: higher = stronger TNF reporter response to LPS. Rule for the call: 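a well is active when its z-score exceeds 2.8 or falls below -1.5; control wells carry no call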.
The deposit covers about 18,000 reagents; shown is a random part of them. About 2,900 of them (16%) count as active. 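Calls are made per well; low scores hint the gene aids the LPS response, high scores that it dampens it.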 Repeated entries: four replicate wells of each siRNA pool.

| Gene | TNF reporter robust z-score | activity call |
| --- | --- | --- |
| P2RY13 (GeneID 53829) | 0.04 | inactive |
| P2RY13 (GeneID 53829) | -0.04 | inactive |
| P2RY13 (GeneID 53829) | -0.23 | inactive |
| P2RY13 (GeneID 53829) | 0.33 | inactive |
| TXLNA (GeneID 200081) | -0.05 | inactive |
| TXLNA (GeneID 200081) | 0.96 | inactive |
| TXLNA (GeneID 200081) | 0.23 | inactive |
| TXLNA (GeneID 200081) | 0.33 | inactive |
| OR5V1 (GeneID 81696) | -0.15 | inactive |
| OR5V1 (GeneID 81696) | -0.4 | inactive |
| OR5V1 (GeneID 81696) | 0.35 | inactive |
| OR5V1 (GeneID 81696) | -0.67 | inactive |
| RAB8B (GeneID 51762) | -0.7 | inactive |
| RAB8B (GeneID 51762) | -0.67 | inactive |
| RAB8B (GeneID 51762) | -1.28 | inactive |
| RAB8B (GeneID 51762) | -0.47 | inactive |
| FOXI1 (GeneID 2299) | -0.28 | inactive |
| FOXI1 (GeneID 2299) | -0.27 | inactive |
| FOXI1 (GeneID 2299) | 0.23 | inactive |
| FOXI1 (GeneID 2299) | -0.08 | inactive |
| SLC35F3 (GeneID 148641) | -0.81 | inactive |
| SLC35F3 (GeneID 148641) | -0.1 | inactive |
| SLC35F3 (GeneID 148641) | -0.21 | inactive |
| SLC35F3 (GeneID 148641) | -0.49 | inactive |
| IARS2 (GeneID 55699) | 0.56 | inactive |
| IARS2 (GeneID 55699) | -0.12 | inactive |
| IARS2 (GeneID 55699) | 1.14 | inactive |
| IARS2 (GeneID 55699) | 0.02 | inactive |
| DCAF7 (GeneID 10238) | -0.73 | inactive |
| DCAF7 (GeneID 10238) | -0.59 | inactive |
| DCAF7 (GeneID 10238) | -0.22 | inactive |
| DCAF7 (GeneID 10238) | -0.39 | inactive |
| TRIM39 (GeneID 56658) | -0.42 | inactive |
| TRIM39 (GeneID 56658) | -1.9 | active |
| TRIM39 (GeneID 56658) | -0.77 | inactive |
| TRIM39 (GeneID 56658) | -0.6 | inactive |
| SLC26A4 (GeneID 5172) | -0.57 | inactive |
| SLC26A4 (GeneID 5172) | -1.07 | inactive |
| SLC26A4 (GeneID 5172) | -1.38 | inactive |
| SLC26A4 (GeneID 5172) | -0.86 | inactive |
| EIF4G3 (GeneID 8672) | 0.63 | inactive |
| EIF4G3 (GeneID 8672) | -0.07 | inactive |
| EIF4G3 (GeneID 8672) | 0.47 | inactive |
| EIF4G3 (GeneID 8672) | 0.13 | inactive |
| MAGEL2 (GeneID 54551) | -1.72 | active |
| MAGEL2 (GeneID 54551) | -1.78 | active |
| MAGEL2 (GeneID 54551) | -0.64 | inactive |
| MAGEL2 (GeneID 54551) | -1.87 | active |
| CMTR2 (GeneID 55783) | -0.35 | inactive |
| CMTR2 (GeneID 55783) | 1.06 | inactive |
| CMTR2 (GeneID 55783) | -0.31 | inactive |
| CMTR2 (GeneID 55783) | 0.11 | inactive |
| GRIN2C (GeneID 2905) | 0.09 | inactive |
| GRIN2C (GeneID 2905) | 0.26 | inactive |
| GRIN2C (GeneID 2905) | -0.08 | inactive |
| GRIN2C (GeneID 2905) | -0.17 | inactive |
| TAF5 (GeneID 6877) | 1.76 | inactive |
| TAF5 (GeneID 6877) | 1.03 | inactive |
| TAF5 (GeneID 6877) | 1.27 | inactive |
| TAF5 (GeneID 6877) | 1 | inactive |
| ANKS3 (GeneID 124401) | -0.32 | inactive |
| ANKS3 (GeneID 124401) | -0.18 | inactive |
| ANKS3 (GeneID 124401) | -1.34 | inactive |
| ANKS3 (GeneID 124401) | -0.81 | inactive |
| SPMAP2 (GeneID 51298) | 0 | inactive |
| SPMAP2 (GeneID 51298) | 0.24 | inactive |
| SPMAP2 (GeneID 51298) | -0.58 | inactive |
| SPMAP2 (GeneID 51298) | -0.25 | inactive |
| KLRC3 (GeneID 3823) | 1.01 | inactive |
| KLRC3 (GeneID 3823) | 0.27 | inactive |
| KLRC3 (GeneID 3823) | 1.38 | inactive |
| KLRC3 (GeneID 3823) | 0.11 | inactive |
| ALPP (GeneID 250) | -0.31 | inactive |
| ALPP (GeneID 250) | -0.51 | inactive |
| ALPP (GeneID 250) | -0.13 | inactive |
| ALPP (GeneID 250) | 0.28 | inactive |
| BDH1 (GeneID 622) | 0.54 | inactive |
| BDH1 (GeneID 622) | 0.37 | inactive |
| BDH1 (GeneID 622) | 0.39 | inactive |
| BDH1 (GeneID 622) | 0.93 | inactive |
| CBLN1 (GeneID 869) | -0.88 | inactive |
| CBLN1 (GeneID 869) | -0.49 | inactive |
| CBLN1 (GeneID 869) | -0.02 | inactive |
| CBLN1 (GeneID 869) | 0.4 | inactive |
| UBL7 (GeneID 84993) | -1.39 | inactive |
| UBL7 (GeneID 84993) | -0.57 | inactive |
| UBL7 (GeneID 84993) | -1.15 | inactive |
| UBL7 (GeneID 84993) | -1.17 | inactive |
| LRRC39 (GeneID 127495) | -1.02 | inactive |
| LRRC39 (GeneID 127495) | -0.74 | inactive |
| LRRC39 (GeneID 127495) | -1.08 | inactive |
| LRRC39 (GeneID 127495) | -1.62 | active |
| TENT5A (GeneID 55603) | 0.27 | inactive |
| TENT5A (GeneID 55603) | -0.14 | inactive |
| TENT5A (GeneID 55603) | 1.4 | inactive |
| TENT5A (GeneID 55603) | 1.44 | inactive |
| CREG1 (GeneID 8804) | -0.97 | inactive |
| CREG1 (GeneID 8804) | -0.16 | inactive |
| CREG1 (GeneID 8804) | 0.5 | inactive |
| CREG1 (GeneID 8804) | 1.04 | inactive |
| OR4M1 (GeneID 441670) | 1.17 | inactive |
| OR4M1 (GeneID 441670) | 2.37 | inactive |
| OR4M1 (GeneID 441670) | 1.23 | inactive |
| OR4M1 (GeneID 441670) | 2.47 | inactive |
| CNDP2 (GeneID 55748) | -0.07 | inactive |
| CNDP2 (GeneID 55748) | 2.21 | inactive |
| CNDP2 (GeneID 55748) | 1.07 | inactive |
| CNDP2 (GeneID 55748) | 0.44 | inactive |
| KBTBD8 (GeneID 84541) | -0.01 | inactive |
| KBTBD8 (GeneID 84541) | -0.94 | inactive |
| KBTBD8 (GeneID 84541) | -0.28 | inactive |
| ZNF320 (GeneID 162967) | 3 | active |
| ZNF320 (GeneID 162967) | 3.68 | active |
| ZNF320 (GeneID 162967) | 1.27 | inactive |
| ZNF320 (GeneID 162967) | 2.55 | inactive |
| LRSAM1 (GeneID 90678) | 0.18 | inactive |
| LRSAM1 (GeneID 90678) | -0.26 | inactive |
| LRSAM1 (GeneID 90678) | -1.16 | inactive |
| LRSAM1 (GeneID 90678) | -0.91 | inactive |
| HRG (GeneID 3273) | -0.75 | inactive |
| HRG (GeneID 3273) | -0.5 | inactive |
| HRG (GeneID 3273) | -0.57 | inactive |
| HRG (GeneID 3273) | -0.61 | inactive |
| SHARPIN (GeneID 81858) | 1.02 | inactive |
| SHARPIN (GeneID 81858) | 0.01 | inactive |
| SHARPIN (GeneID 81858) | -0.72 | inactive |
| SHARPIN (GeneID 81858) | -1.03 | inactive |
| DOC2A (GeneID 8448) | 1.13 | inactive |
| DOC2A (GeneID 8448) | 1.58 | inactive |
| DOC2A (GeneID 8448) | 0.69 | inactive |
| DOC2A (GeneID 8448) | 0.27 | inactive |
| CHPF (GeneID 79586) | 3.28 | active |
| CHPF (GeneID 79586) | 0.05 | inactive |
| CHPF (GeneID 79586) | 1 | inactive |
| CHPF (GeneID 79586) | 3.21 | active |
| SERPINB13 (GeneID 5275) | 1.91 | inactive |
| SERPINB13 (GeneID 5275) | 3.38 | active |
| SERPINB13 (GeneID 5275) | -0.22 | inactive |
| SERPINB13 (GeneID 5275) | 0.66 | inactive |
| ABAT (GeneID 18) | -1.42 | inactive |
| ABAT (GeneID 18) | -1.35 | inactive |
| ABAT (GeneID 18) | -1.56 | active |
| ABAT (GeneID 18) | -1.25 | inactive |

18 successive entries from above, quoted:
| Gene | TNF reporter robust z-score | activity call |
| --- | --- | --- |
| MAGEL2 (GeneID 54551) | -0.64 | inactive |
| MAGEL2 (GeneID 54551) | -1.87 | active |
| CMTR2 (GeneID 55783) | -0.35 | inactive |
| CMTR2 (GeneID 55783) | 1.06 | inactive |
| CMTR2 (GeneID 55783) | -0.31 | inactive |
| CMTR2 (GeneID 55783) | 0.11 | inactive |
| GRIN2C (GeneID 2905) | 0.09 | inactive |
| GRIN2C (GeneID 2905) | 0.26 | inactive |
| GRIN2C (GeneID 2905) | -0.08 | inactive |
| GRIN2C (GeneID 2905) | -0.17 | inactive |
| TAF5 (GeneID 6877) | 1.76 | inactive |
| TAF5 (GeneID 6877) | 1.03 | inactive |
| TAF5 (GeneID 6877) | 1.27 | inactive |
| TAF5 (GeneID 6877) | 1 | inactive |
| ANKS3 (GeneID 124401) | -0.32 | inactive |
| ANKS3 (GeneID 124401) | -0.18 | inactive |
| ANKS3 (GeneID 124401) | -1.34 | inactive |
| ANKS3 (GeneID 124401) | -0.81 | inactive |
